Source: article PMC9976902, “Interaction of human HelQ with DNA polymerase delta halts DNA synthesis and stimulates DNA single-strand annealing” (Nucleic Acids Research, 2022)
Construct, isoform or probe ends are uncertain for at least one entry. Negatives hold for the conditions tested.

The chains behind the UniProt entries cited, without tags or fusion partners. Where a name states a change or a piece, a line headed by the entry shows the natural chain unless it says otherwise.
UniProt Q8TDG4: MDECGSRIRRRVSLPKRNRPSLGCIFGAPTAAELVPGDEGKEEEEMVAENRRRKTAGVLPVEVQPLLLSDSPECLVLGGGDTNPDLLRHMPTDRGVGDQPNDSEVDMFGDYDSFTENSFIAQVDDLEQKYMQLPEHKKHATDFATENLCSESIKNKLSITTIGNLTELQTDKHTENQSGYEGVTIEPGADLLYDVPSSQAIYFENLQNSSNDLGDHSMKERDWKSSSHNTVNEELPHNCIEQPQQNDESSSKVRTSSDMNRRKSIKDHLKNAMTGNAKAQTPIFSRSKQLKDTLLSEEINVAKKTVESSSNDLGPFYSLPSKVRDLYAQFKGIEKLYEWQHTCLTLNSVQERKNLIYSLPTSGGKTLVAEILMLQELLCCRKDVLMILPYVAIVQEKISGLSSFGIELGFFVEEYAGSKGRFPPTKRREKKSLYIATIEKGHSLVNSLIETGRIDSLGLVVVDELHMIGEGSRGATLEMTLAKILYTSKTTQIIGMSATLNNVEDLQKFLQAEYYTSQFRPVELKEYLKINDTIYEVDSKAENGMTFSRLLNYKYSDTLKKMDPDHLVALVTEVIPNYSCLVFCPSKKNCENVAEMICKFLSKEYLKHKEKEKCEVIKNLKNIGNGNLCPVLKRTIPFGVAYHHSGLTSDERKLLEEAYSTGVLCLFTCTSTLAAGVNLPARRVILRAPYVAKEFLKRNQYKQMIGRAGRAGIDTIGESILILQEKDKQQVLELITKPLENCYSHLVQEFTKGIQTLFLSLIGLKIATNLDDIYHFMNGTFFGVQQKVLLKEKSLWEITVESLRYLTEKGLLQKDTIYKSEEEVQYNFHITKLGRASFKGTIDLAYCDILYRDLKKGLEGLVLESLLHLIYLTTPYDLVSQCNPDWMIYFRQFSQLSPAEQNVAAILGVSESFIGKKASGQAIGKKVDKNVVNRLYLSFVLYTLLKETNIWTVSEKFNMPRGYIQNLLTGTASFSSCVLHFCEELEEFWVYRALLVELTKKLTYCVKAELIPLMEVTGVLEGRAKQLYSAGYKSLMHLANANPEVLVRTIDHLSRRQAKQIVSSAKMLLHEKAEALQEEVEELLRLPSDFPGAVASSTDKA

Target: HelQΔWHD (human) (UniProt Q8TDG4)
Assay: EMSA
Details: 50 mM EDTA, HelQΔWHD 100-400 nM, DNA 15 nM, EMSA: 20 mM Tris-HCl pH 7.5, 7% glycerol, 25 mM DTT, 25 nM DNA (Methods; 15 nM in legend), 37 C 10 min, 5% TBE gel, recombinant protein

“GTCGGATCCTCTAGACAGCTCCATGATCACTGGCACTGGTAGAATTCGGC / CAACGTCATAGACGATTACATTGCTACATGGAGCTGTCTAGAGGATCCGA [forked DNA (MW12/MW14)]”: no binding.
